# PubChem BioAssay AID1117319 (Southern Research Institute, 2015)
# Chains of the proteins cited; added tags and fusions are not shown. Lines headed by an entry give the natural chain unless they say otherwise; changes in a name come on top.
# UniProt P69720: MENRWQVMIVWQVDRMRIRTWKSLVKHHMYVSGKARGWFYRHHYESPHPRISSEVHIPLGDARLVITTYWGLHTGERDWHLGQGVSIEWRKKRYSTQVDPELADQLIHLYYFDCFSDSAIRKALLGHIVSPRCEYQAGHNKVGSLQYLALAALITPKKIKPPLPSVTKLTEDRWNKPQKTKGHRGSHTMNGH
# UniProt P69721: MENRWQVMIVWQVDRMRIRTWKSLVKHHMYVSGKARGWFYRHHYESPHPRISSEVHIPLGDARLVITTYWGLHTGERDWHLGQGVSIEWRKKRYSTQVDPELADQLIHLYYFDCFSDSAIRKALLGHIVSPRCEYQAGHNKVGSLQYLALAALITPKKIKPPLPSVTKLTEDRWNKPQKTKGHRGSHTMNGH
# UniProt P69722: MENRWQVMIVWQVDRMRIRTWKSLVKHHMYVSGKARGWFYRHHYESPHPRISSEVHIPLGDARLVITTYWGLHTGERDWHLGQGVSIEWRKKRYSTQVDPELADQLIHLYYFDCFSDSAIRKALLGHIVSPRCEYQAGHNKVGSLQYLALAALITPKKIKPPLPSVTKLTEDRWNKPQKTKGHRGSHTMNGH
# UniProt P69723: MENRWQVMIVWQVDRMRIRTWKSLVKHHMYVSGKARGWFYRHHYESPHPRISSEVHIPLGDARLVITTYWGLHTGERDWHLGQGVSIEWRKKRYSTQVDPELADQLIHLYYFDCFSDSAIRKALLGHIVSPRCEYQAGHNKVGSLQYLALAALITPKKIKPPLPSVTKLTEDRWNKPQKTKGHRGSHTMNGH
# UniProt Q9HC16: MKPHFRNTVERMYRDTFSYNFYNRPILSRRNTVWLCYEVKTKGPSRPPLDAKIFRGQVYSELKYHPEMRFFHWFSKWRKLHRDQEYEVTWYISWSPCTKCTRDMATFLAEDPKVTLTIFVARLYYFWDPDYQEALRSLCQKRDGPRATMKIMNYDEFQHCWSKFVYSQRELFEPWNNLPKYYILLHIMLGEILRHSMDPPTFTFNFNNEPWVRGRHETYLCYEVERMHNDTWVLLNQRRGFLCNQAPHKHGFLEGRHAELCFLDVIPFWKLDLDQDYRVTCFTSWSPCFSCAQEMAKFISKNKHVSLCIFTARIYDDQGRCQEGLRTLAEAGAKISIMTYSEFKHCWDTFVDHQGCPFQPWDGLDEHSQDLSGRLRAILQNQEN
# Values joined by “and” are separate entries in the source; they are usually repeats but may differ in a detail not shown here. Identical values can stand only once. The campaign covered roughly 260,000 compounds. About 1,500 (0.58%) were called active. The inconclusive results got no clear call from the source; some entries with a clear call stand among them for comparison.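 Rule for the calls: active = inhibition above a set limit at one or more doses, reproduced on every date tested; inconclusive = results disagree between test dates, or hit never tested in dose response; inactive = the rest.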
# Biological target: Virion infectivity factor (Human immunodeficiency virus type 1 group M subtype B (isolate BH10)) + Virion infectivity factor (Human immunodeficiency virus type 1 group M subtype B (isolate BRU/LAI)) + Virion infectivity factor (Human immunodeficiency virus type 1 group M subtype B (isolate PCV12)) + Virion infectivity factor (Human immunodeficiency virus type 1 group M subtype B (isolate HXB2)) + DNA dC->dU-editing enzyme APOBEC-3G (Homo sapiens) (UniProt P69720+P69721+P69722+P69723+Q9HC16)
# Test: inhibitors of Vif binding to APOBEC3G peptide, primary screen, biochemical, TR-FRET, GST-Vif 1-94, biotin-A3G peptide, dose response retest (AID 1117319);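 note: Vif residues 1-94 fused to GST binding biotinylated APOBEC3G peptide 110-148; 0% = full assay without inhibitor and 100% = GST in place of GST-Vif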
# Settings: stronger effect = higher value
row,SMILES,inhibition
1,CCn1c(CC(C)C)n[nH]c1=S,inconclusive: 36.7%
2,Cc1ccc(-c2n[nH]c(=O)c3ccccc23)cc1S(=O)(=O)NC(C)(C)C,inconclusive: 60.7%
3,Cc1ccc(C(=O)CN2/C(=C(\O)c3ccccc3)C(=O)c3ccccc3S2(=O)=O)c(C)c1,inactive: 2.58%
4,O=C1C2CCCN2C(c2ccccc2)N1c1ccc(Cl)cc1 (stereo not drawn),inactive: 15.8%
5,CCOC(=O)c1sc(N)nc1-c1ccccc1,inconclusive: 44.5%
6,CC(C)CCNC(=O)CCCOc1ccccc1,inconclusive: 52.8%
7,CC(=O)Nc1ccc(NC(=O)C2CC(=O)Nc3ncnn32)cc1 (stereo not drawn),inconclusive: 59.5%
8,O=C1CCC(=O)N1CN(C(=O)c1ccco1)c1ccc(Cl)c(Cl)c1,inactive: 3.26% and inactive: 3.71%
9,O=c1c(CO)cc(CO)cc(CO)c1O,inconclusive: 55.3%
10,CCCCN(CC)S(=O)(=O)N1CCC(C(=O)NCCCN2CCOCC2)CC1,inconclusive: 20.3%
11,CCCn1c(CNc2ccc(Br)cc2)nc2ccccc21,inactive: -3.54%
12,C=CCOc1ccc2c(OC)c3ccoc3nc2c1OC,inconclusive: 40.4%
13,Cc1c(NC(=O)C(C)OC(=O)c2c3c(nc4ccccc24)CCC3)c(=O)n(-c2ccccc2)n1C (stereo not drawn),inconclusive: 53.1%
14,COc1ccc(S(=O)(=O)N2CCCCC2)cc1NC(=O)c1ccc(N2CCCC2=O)cc1,inconclusive: 37.7%
15,O=C(CNC(=O)c1ccco1)NCc1nc2ccccc2[nH]1,inconclusive: 42.6%
16,COc1ccccc1NC(=O)c1cccs1,inconclusive: 59.2%
17,COc1cccc(OCc2nc3ccccc3[nH]2)c1,inconclusive: 49.4%
18,Cc1ccc(-c2cc(-c3ccco3)c(C#N)c(=O)[nH]2)cc1,inconclusive: 61.6%
19,Cc1cc(-c2ccccc2)[nH]c(=O)c1C#N,inactive: -1.26%
20,COc1ccc(-c2c[n+]3c4n2CCCCC4=C(c2ccccc2)C3)cc1,inconclusive: 37.8%

row,SMILES,inhibition
1,CCc1ccc(Nc2nnc(SCC(=O)Nc3cccc(S(=O)(=O)NC4=NCCCCC4)c3)s2)cc1,inconclusive: 40.1%
2,Nc1ccc(N=Nc2ccccc2)c(N)n1,inconclusive: 34.3%
3,O=C(Nc1ccc(Oc2ccccc2)cc1)c1ccc(Cn2c(=O)[nH]c3ccsc3c2=O)cc1,inactive: -6.11%
4,Cc1ccc(S(=O)(=O)/C(C#N)=C/c2c(N3CCN(C)CC3)nc3ccccn3c2=O)cc1,inconclusive: 26.6%
5,CC(=O)N1CCc2cc(N=NC3=C(O)CCCC3=O)ccc21,inactive: 11.2%
6,CCOC(=O)N1CCN(C(=O)CN(c2cccc(OC)c2)S(C)(=O)=O)CC1,inconclusive: 41.5%
7,COC(=O)c1cccc(Nc2ncnc3sccc23)c1,inconclusive: 34.2%
8,CCCC(=O)OCCNc1cc(Sc2nccn2C)c2nonc2c1[N+](=O)[O-],inconclusive: 62.9%
9,O=C(COc1ccc(Cl)cc1Cl)NCC(=O)N/N=C/c1c[nH]c2ccccc12,inconclusive: 39.6%
10,COCCn1c(=O)[nH]c2cc(C(=O)NCCN3CCN(c4cccc(Cl)c4)CC3)ccc2c1=O,inconclusive: 49.2%
11,Cc1ccc(-c2noc(CCC(N)=O)n2)cc1,inconclusive: 36.4%
12,Cc1cc2cc(CN(CCN(C)C)C(=S)NCc3ccco3)c(=O)[nH]c2cc1C,inconclusive: 61.7%
13,CCN(CC)c1ccc(C(=O)O)cc1,inconclusive: 39.1%
14,CCCOCC(O)CCc1n[nH]c(=S)n1-c1ccccc1 (stereo not drawn),inconclusive: 36.3%
15,O=C1CCCC2=C1C(c1ccc(Br)cc1)c1c([nH]c(=S)[nH]c1=O)N2 (stereo not drawn),inconclusive: 38.2%
16,COc1cc(C=O)ccc1OCc1cccc(Br)c1,inconclusive: 44.7%
17,Cc1cc(C)n(-c2nnc(C)n2NS(=O)(=O)c2ccc(F)cc2)n1,inconclusive: 43.2%
18,Cc1ccn(CC(=O)N/N=C/c2cc([N+](=O)[O-])ccc2O)n1,inconclusive: 51.5%
19,Cc1cc(C)nc(NCC(O)COc2ccccc2C)n1 (stereo not drawn),inconclusive: 35.1%
20,COC(=O)C1=C(C)N(Cc2ccco2)C(=O)C1,inconclusive: 57%

row,SMILES,inhibition
1,COc1ccc(NS(=O)(=O)c2ccc(NC(=O)Cc3cccs3)cc2)cc1,inconclusive: 42.1%
2,CCn1c(C(C)NC(=O)c2ccc(OC)c(OC)c2)nc2ccccc21 (stereo not drawn),inconclusive: 27.4%
3,Cc1nn(-c2ccccn2)c2c1-c1nc(N)ncc1CC2,inactive: 5.31%
4,Oc1ccc(N2CCN(C(c3ccncc3)c3nnnn3C3CCCC3)CC2)cc1 (stereo not drawn),inconclusive: 55.8%
5,O=C(O)CNC(=O)CCn1nnc2ccccc2c1=O,inactive: -2.36%
6,CCCOC(=O)c1ccc(Oc2c(-c3ccc(O)cc3O)n[nH]c2C)cc1,inconclusive: 56%
7,c1ccc(CN2CCN(c3nc4ccccc4c4ccccc34)CC2)cc1,inconclusive: 40.6%
8,COc1ccccc1Nc1nc(-c2sc(NC(=O)c3cccc(Cl)c3)nc2C)cs1,inconclusive: 44.9%
9,CN1C(=O)c2cccc3c(Cl)ccc(c23)C1=O,inconclusive: 39.9%
10,Cc1ccc(/C=N/c2sc3c(c2C#N)CCC3)s1,inconclusive: 43.8%
11,O=c1c2cc([N+](=O)[O-])ccc2nc(CN2CCN(c3ccccn3)CC2)n1-c1ccccc1F,inconclusive: 33.6%
12,Cc1ccccc1Oc1nc2ccccc2n2cnnc12,inconclusive: 39.9%
13,CCc1ccccc1NC(=O)Nc1ccc(F)cc1,inconclusive: 54.8%
14,COc1ccccc1C(=O)NNC(=O)CCCN1C(=O)/C(=C/c2cccs2)SC1=S,inconclusive: 37.5%
15,COc1ccc(CC(=O)Nc2cccc(-c3nnc(-c4cccc(C)c4)o3)c2)cc1OC,inconclusive: 39.2%
16,COc1ccc(CNC(=O)C2CCN(S(=O)(=O)N3CCOCC3)CC2)cc1,inconclusive: 35.4%
17,CCCN1C2=C(C(=O)CCC2)C(c2ccc(O)c(Br)c2)C2=C1CCCC2=O,inconclusive: 49%
18,CCc1nnc(NC(=O)CSc2ccc(-c3ccco3)nn2)s1,inconclusive: 34.7%
